From ChEMBL document CHEMBL3988442, “University of Dundee, Small-Polar-MMV Screening Library” (2021).

Protein sequences, listed by entry. Tags and fused reporters are not part of them. Residues count along the entry.
UniProt Q8IDJ8, 1-583: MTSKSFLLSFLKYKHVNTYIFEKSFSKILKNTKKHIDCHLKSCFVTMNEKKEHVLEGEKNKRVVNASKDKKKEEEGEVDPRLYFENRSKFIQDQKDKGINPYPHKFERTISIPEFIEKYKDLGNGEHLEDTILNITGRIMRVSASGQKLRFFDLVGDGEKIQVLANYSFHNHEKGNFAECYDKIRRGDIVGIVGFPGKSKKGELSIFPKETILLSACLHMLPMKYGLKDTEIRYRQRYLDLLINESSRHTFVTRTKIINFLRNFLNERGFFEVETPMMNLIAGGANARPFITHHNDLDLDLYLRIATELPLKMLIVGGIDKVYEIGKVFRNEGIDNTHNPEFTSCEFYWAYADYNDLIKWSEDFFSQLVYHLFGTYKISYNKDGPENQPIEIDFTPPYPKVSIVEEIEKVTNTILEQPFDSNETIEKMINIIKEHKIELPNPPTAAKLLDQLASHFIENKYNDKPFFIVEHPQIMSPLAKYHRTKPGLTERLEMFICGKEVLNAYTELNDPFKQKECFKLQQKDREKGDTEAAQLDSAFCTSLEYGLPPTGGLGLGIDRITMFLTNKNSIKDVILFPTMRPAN
UniProt P9WNZ1, whole entry: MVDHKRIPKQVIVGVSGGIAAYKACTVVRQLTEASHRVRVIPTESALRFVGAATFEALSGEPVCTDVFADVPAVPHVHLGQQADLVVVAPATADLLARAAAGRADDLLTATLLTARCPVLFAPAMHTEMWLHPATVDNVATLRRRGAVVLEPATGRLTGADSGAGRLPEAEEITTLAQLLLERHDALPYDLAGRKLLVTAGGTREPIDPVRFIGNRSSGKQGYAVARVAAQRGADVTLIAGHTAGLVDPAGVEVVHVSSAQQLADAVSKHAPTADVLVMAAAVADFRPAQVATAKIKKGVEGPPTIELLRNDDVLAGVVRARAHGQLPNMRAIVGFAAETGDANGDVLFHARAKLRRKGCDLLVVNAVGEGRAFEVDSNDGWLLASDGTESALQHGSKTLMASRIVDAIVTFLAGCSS

PfKRS1: 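Lysine-tRNA ligase, Plasmodium falciparum 3D7 (UniProt Q8IDJ8). Enzyme assay of the cytosolic lysyl-tRNA synthetase in 384-well plates, read by luminescence. Compounds at 30 µM. Higher reads as stronger inhibition, judged from the few compounds that gave an IC50. Size under these conditions: about 69,000 compounds, about 49 of them at 50% or above in at least one test.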
Toxoplasma: 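Assay of Toxoplasma gondii numbers, read through their beta-galactosidase reporter with a colour substrate. Compounds at 10 µM. The record gives no direction; the compounds picked for IC50 retests had high values, so higher reads as fewer parasites. About 67,000 compounds were tested under these conditions; 0.38% (about 260) showed 50% or more at least once.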
CoaBC: 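Coenzyme A biosynthesis protein CoaBC, Mycobacterium tuberculosis (UniProt P9WNZ1). Enzyme assay of CoaBC with a phosphate dye (Biomol Green) read at 650 nm. Compounds at 30 µM. Direction is inferred from only a few compounds that gave an IC50; most scored high, so higher reads as stronger inhibition. Most strong results did not repeat in a second test. Of about 67,000 compounds tested this way, about 40 (0.06%) reached 50% or more in at least one test.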

Results are given as percent effect.
How 0% and 100% were set is not recorded. Most values in the screen are low, and negative values occur.
Compounds were drawn at random from those tested, without regard to their results.
A dash means the value is not listed here; it may have been measured.

| # | structure | PfKRS1 | Toxoplasma | CoaBC |
|---|---|---|---|---|
| 1 | `CS(=O)(=O)CCCSc1n[nH]c(-c2ccc3c(c2)CCC3)n1` | 1.988 | 6.116 | 9.346 |
| 2 | `Cc1nc(Nc2nnc(C)s2)cc(C2CCCN2)n1.Cl` (stereo not shown) | - | 0.6914 | - |
| 3 | `[H][C@@]12OCCN(C(=O)C3CCOCC3)[C@@]1([H])CC[C@H]2OCC1CC1` | - | 6.999 | - |
| 4 | `COc1ccc(N(C)Cc2nc3c(cnn3C)c(=O)[nH]2)cc1OC` | 1.487 | 5.271 | -1.654 |
| 5 | `O=C(Nc1ccn(Cc2cccc3cccnc23)n1)C1COCCO1` (stereo not shown) | 2.947 | 10.66 | 2.539 |
| 6 | `Cc1nc(C)c(C(=O)N2CCc3[nH]nc(COc4ccccc4)c3C2)s1` | 3.601 | -5.326 | 17.8 |
| 7 | `CC(C)(C)c1noc(-c2ccnc(-n3cnc(C(=O)O)c3)c2)n1` | 1.402 | -2.356 | 8.019 |
| 8 | `COc1ccc(C)cc1S(=O)(=O)N[C@H]1CN(C(C)=O)C[C@@H]1C1CC1` | 2.267 | 13.34 | 1.555 |
| 9 | `[H][C@@]12CCN(C(=O)c3ccnnc3)C[C@@]1([H])O[C@@H](c1nc(C)cs1)C2` | - | 0.7901 | - |
| 10 | `COCCN(Cc1nccs1)C(=O)c1cc(-c2ccc(C)s2)n[nH]1` | -0.2039 | 8.59 | -0.4032 |
| 11 | `COc1ccc(NC(=O)N2CCCC2c2ccco2)cc1OC` (stereo not shown) | 4.161 | -1.33 | 3.169 |
| 12 | `CC(Cc1ccccn1)N(C)C(=O)c1ncc[nH]1` (stereo not shown) | -0.3622 | 19.9 | 9.636 |
| 13 | `COc1ccccc1CN1CC[C@]2(C[C@H](OC)CO2)C1` | 1.854 | - | 2.826 |
| 14 | `O=c1cc(C2CCNCC2)nc(Cc2cccc(Cl)c2)[nH]1` | 6.535 | 4.658 | -11.25 |
| 15 | `CCn1ncnc1C(NC(=O)CC1CCN(C(C)C)CC1)C1CC1` (stereo not shown) | 0.5446 | 1.116 | -3.524 |
| 16 | `CCCn1nnnc1COC(=O)C1COc2ccc(Cl)cc2C1` (stereo not shown) | 0.9385 | 12.4 | -7.585 |
| 17 | `Cc1nccn1CCC1CCN(C(C)C)CC1` | 2.264 | 12.74 | -0.8653 |
| 18 | `O=S(=O)(NCC1(c2cccs2)CCOCC1)c1ccc2c(c1)OCCO2` | 2.365 | -0.2068 | 4.97 |
| 19 | `Cn1nccc1CNC(=O)CCn1nc(C(F)(F)F)c(Cl)c1C1CC1` | 3.737 | 2.574 | -3.558 |
| 20 | `CNC(=O)c1c(C)cccc1NCc1noc(C2CC2)n1` | 8.419 | 0.7088 | 2.215 |
| 21 | `Cc1cc(NC(=O)C(C)C)n(-c2nc(C)c(C)c(=O)[nH]2)n1` | 1.16 | 91.77 | -0.5109 |
| 22 | `CC(C)N1CCc2ncn(C)c2C1C(=O)N1CCOCC1` (stereo not shown) | 1.38 | - | 3.089 |
| 23 | `CC(C)=CCN1CCN(C(=O)c2snnc2C)[C@H]2CS(=O)(=O)C[C@H]21` | 1.698 | - | 1.071 |
| 24 | `CC(C)NC(=O)N1CCC2(CC(=O)N(c3cccc(F)c3)C2)C1` (stereo not shown) | 3.697 | 4.102 | -4.622 |
| 25 | `Cc1nc(CN)cc(N2CCC(O)(c3ccc(Cl)cc3)CC2)n1` | 1.526 | -0.3236 | - |
| 26 | `CCN(CC)c1ccc(NS(=O)(=O)c2cccnc2)cn1` | 6.501 | -1.639 | -2.788 |
| 27 | `CN(C)CC(=O)N1CCC2(CCc3ccc(-c4ccncc4)cc32)CC1` | 8.765 | - | - |
| 28 | `COCc1nc(C(=O)OCC2CCN(c3ccccc3)C2)cs1` (stereo not shown) | 2.923 | 3.563 | -4.225 |
| 29 | `CN(Cc1ccccc1C#N)C1CCN(CCc2ccccn2)CC1` | 1.845 | 1.563 | 0.2551 |
| 30 | `Cc1cccc(N2CCN(Cc3nc(CC4CC4)no3)CC2)n1` | 0.6333 | -10.81 | -2.008 |
| 31 | `COc1cccc(CCC2CCCN(C(=O)c3ccc(=O)n(C)n3)C2)c1` (stereo not shown) | -1.565 | -12.7 | 0.7317 |
| 32 | `[H][C@@]12C[C@@H](Oc3cccnc3)CN1CCN(C(=O)c1cccn1C)C2` | - | 6.958 | - |
| 33 | `Cc1nc(CSCCC(=O)NCCNC(=O)OC(C)(C)C)cs1` | 0.382 | 3.695 | -7.273 |
| 34 | `COC[C@@]12CC[C@@H](N3CCOCC3)C[C@H]1CCN(c1cc(C)ccn1)C2` | 5.352 | - | 7.937 |
| 35 | `Cc1nnc(Cn2cc(I)cc(C)c2=O)o1` | 0.7019 | -1.538 | 4.925 |
| 36 | `COc1ccc(CCCC(=O)NCc2c(C)noc2C)cc1F` | -0.06894 | 23.45 | 3.269 |
| 37 | `CC(C)c1nc(C2CCCN(C(=O)c3ccc4nccn4c3)C2)no1` (stereo not shown) | 6.879 | -7.029 | 5.385 |
| 38 | `O=C(O)c1cn2cc(C(F)(F)F)ccc2n1` | 1.35 | 28.95 | 0 |
| 39 | `Cc1nc(CN2CCN(C(=O)c3ccc(=O)n(C)c3)CC2)cs1` | 11.76 | 2.955 | 3.891 |
| 40 | `Cc1nc(C)n(CC2CN(Cc3cccc(OC(C)C)c3)CCO2)n1` (stereo not shown) | 1.561 | -6.467 | 5.085 |

Some entries from above, unchanged:

Cn1nccc1CNC(=O)CCn1nc(C(F)(F)F)c(Cl)c1C1CC1 read PfKRS1: 3.737%; Toxoplasma: 2.574%; CoaBC: -3.558%.
Cc1nc(CN2CCN(C(=O)c3ccc(=O)n(C)c3)CC2)cs1 read PfKRS1: 11.76%; Toxoplasma: 2.955%; CoaBC: 3.891%.
CC(C)=CCN1CCN(C(=O)c2snnc2C)[C@H]2CS(=O)(=O)C[C@H]21 read PfKRS1: 1.698%; CoaBC: 1.071%.
Cc1nc(CN)cc(N2CCC(O)(c3ccc(Cl)cc3)CC2)n1 read PfKRS1: 1.526%; Toxoplasma: -0.3236%.